The values that follow come from PubChem BioAssay AID488840 (Broad Institute, 2010).

Sequences of proteins named here, by UniProt entry; tags and fusion partners are left off. A change or cut given only in a name is not applied to a line headed by its entry.
UniProt O75164: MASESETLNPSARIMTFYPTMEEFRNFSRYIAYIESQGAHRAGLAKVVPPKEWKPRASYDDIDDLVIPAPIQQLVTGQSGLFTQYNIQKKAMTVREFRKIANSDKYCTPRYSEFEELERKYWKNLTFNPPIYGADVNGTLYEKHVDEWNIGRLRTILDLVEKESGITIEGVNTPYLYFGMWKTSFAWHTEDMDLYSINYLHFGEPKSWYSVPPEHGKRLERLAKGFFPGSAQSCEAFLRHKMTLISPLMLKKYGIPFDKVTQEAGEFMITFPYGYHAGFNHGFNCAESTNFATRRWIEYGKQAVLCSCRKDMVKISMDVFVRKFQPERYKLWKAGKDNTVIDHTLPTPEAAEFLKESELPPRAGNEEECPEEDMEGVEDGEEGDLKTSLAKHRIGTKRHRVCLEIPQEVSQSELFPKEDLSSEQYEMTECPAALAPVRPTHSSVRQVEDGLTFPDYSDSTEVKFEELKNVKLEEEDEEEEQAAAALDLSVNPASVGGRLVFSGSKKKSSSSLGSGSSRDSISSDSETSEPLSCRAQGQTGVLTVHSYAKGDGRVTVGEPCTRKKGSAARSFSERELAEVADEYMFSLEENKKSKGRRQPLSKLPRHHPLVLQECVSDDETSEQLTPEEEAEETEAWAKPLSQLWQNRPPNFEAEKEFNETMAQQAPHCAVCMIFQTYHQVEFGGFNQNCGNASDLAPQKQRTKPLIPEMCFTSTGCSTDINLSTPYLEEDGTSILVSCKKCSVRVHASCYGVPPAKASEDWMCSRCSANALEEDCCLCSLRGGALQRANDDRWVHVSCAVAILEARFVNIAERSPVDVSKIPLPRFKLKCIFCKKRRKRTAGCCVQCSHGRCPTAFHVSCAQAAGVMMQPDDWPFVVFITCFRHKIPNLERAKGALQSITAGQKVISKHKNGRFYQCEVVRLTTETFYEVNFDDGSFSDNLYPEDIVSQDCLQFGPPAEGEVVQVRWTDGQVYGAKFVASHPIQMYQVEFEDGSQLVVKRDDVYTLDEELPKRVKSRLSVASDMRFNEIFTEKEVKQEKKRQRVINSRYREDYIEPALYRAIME

Out of some 1,400 compounds screened, about 45 (3%) were called active.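 The calls were made as follows: active = half-maximal dose of signal decrease from fit no higher than ten times the top valid tested dose; inconclusive = fit invalid, or curve flat with 30 to 70% inhibition; inactive = the rest.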 The list shows a part of the results. Entries with a potency or affinity are not part of this list.

For this experiment, the target named is Lysine-specific demethylase 4A (Homo sapiens) (UniProt O75164). Put plainly: inhibition of JMJD2A H3K9me3 demethylation – biochemical, DELFIA europium, cherry-picked samples, selectivity assay for GASC-1 inhibitor project, dose response (AID 488840).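 Also: europium signal reports the dimethyl H3K9 product detected by antibody so inhibitors lower it; 0% = median of neutral control wells and -100% = median of positive control wells.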 As to conditions: GST-JMJD2A(1-420) H3K9me3 demethylation; at 6 µM (top of the series) unless noted.
On to `CS(=O)(=O)N(CC(=O)NCc1ccco1)c1ccccc1Cl`, for which the activity change, negative = inhibition was inactive: 0.814%.
As for `Cc1c(C(=O)NCc2cccs2)oc2ccccc12`, the figure is inactive: 2.19%.
Turning to `CCn1c(=O)c(-c2nc3ccccc3[nH]2)c(O)c2ccccc21`, the activity change, negative = inhibition was inactive: -3.34%.
As for `N#CCN1CCC(c2cc(-c3ccco3)n[nH]2)CC1`, the figure is inactive: -2.49%.
Next, `COc1cc(/C=N/Nc2ccccc2)ccc1OC(=O)c1cccs1`: inactive: -6.09%; `Cc1nnc(N/N=C\c2ccc(-c3ccccc3[N+](=O)[O-])o2)n1N`: inactive: -12.8%.
As for `Cc1ccc(C)c(N(C(=O)c2csnn2)C(C(=O)NC2CCCC2)c2cccnc2)c1` (stereo unspecified), the activity change, negative = inhibition is inactive: -2.27%.
Turning to `O=C(NCc1cccc(Cl)c1)c1cnn2c1NC(c1ccco1)CC2C(F)(F)F` (stereo unspecified), the activity change, negative = inhibition was inactive: -2.33%.
Turning to `COc1cccc(OC)c1C(=O)NC(=S)N1CCOCC1`, the activity change, negative = inhibition was inactive: 1.69%.
Next, `N#Cc1ccc(N=c2ssnc2Cl)cc1`: inactive: 6.6%.
Consider `C[C@@H]1CN([C@@H](C)CO)C(=O)c2cc(NC(=O)CCN3CCOCC3)ccc2O[C@@H]1CN(C)C(=O)Nc1ccccc1`, for which the activity change, negative = inhibition is inactive: -0.696%.
For `COc1ccccc1-c1nc(C#N)c(NCc2ccc(F)cc2)o1`, the activity change, negative = inhibition is inactive: 5.13%.
Next, `COc1cc2c(cc1CNC[C@H]1O[C@@H](n3cnc4c(N)ncnc43)[C@H](O)[C@@H]1O)OCO2`: inactive: 5.09%; `O=C1c2ccc([N+](=O)[O-])cc2C(=O)N1Cc1cccnc1`: inactive: 7.62%.
Take `O=C(/C=C/c1ccc2c(c1)OCO2)NCCS(=O)(=O)N1CCN(c2ccc(F)cc2)CC1`: the activity change, negative = inhibition was inactive: 1.96%.
As to `CCOC(=O)C1(C)NC(c2cccs2)C2C(=O)N(c3ccc(OC)cc3)C(=O)C21` (stereo unspecified), the activity change, negative = inhibition is inactive: 2.68%.
As for `S=C(NCc1ccco1)Nc1cccc(Cl)c1`, the figure is inactive: 1.64%.
For the compound `N#Cc1nc(COc2ccccc2F)oc1NCCCn1ccnc1`, the activity change, negative = inhibition is inactive: -0.21%.
As for `O=C(NC1CCN(S(=O)(=O)c2ccc(F)cc2)CC1)c1ccc(F)cc1`, the figure is inactive: -4.19%.
As for `CSC1=N/C(=C\C=C\c2cccs2)C(=O)S1`, the figure is inactive: 0.0904%.
Next, `O=C(CC(=O)N/N=C/c1c(F)cccc1Cl)NCc1ccccc1`: inactive: -4.77%; `Cc1ccc(C(=O)CN2C(=O)C(=O)N(Cc3ccccc3)C2=O)cc1`: inactive: 2.2%.
For the compound `CC(=O)Nc1ccc(NC(=O)Cn2cnc3c(cnn3C(C)(C)C)c2=O)cc1`, the activity change, negative = inhibition was inactive: -13.6%.
As for `Cc1ccc(CONC(=O)c2cccc([N+](=O)[O-])c2)cc1`, the figure is inactive: -0.947%; as for `CC/C(=C/c1sc2ccc(C)cc2[n+]1CCCS(=O)(=O)[O-])SC`, inactive: 0.561%; as for `COc1ccc(S(=O)(=O)Nc2ccc3c(c2)CC(=O)N([C@@H](C)CO)C[C@H](C)[C@@H](CN(C)S(=O)(=O)c2ccc(F)cc2)O3)cc1`, inactive: -0.126%.
As for `CCNC(=O)c1ccc2c(c1)S(=O)(=O)c1ccccc1C2=O`, the figure is inactive: 0.302%.
Next, `CC(C)NC(=O)N(C)C[C@H]1Oc2ccc(NC(=O)C3CC3)cc2C(=O)N([C@H](C)CO)C[C@@H]1C`: inactive: -5.78%; `N=C1C(c2nc3ccccc3s2)=C(O)CN1Cc1ccccc1`: inactive: 6.89%; `Cc1ccc(/C(N)=N/OC(=O)CCC2CCCCC2)cc1`: inactive: 0.447%.
As for `Nc1c(Cl)ncnc1NCc1cccnc1`, the activity change, negative = inhibition was inactive: -3.71%.
In the case of `COc1ccccc1CNC(=O)COc1ccc(S(=O)(=O)N2CCOCC2)cc1C`, the activity change, negative = inhibition is inactive: -1.64%.
For the compound `CCN(CC)C(=O)[C@H]1CC(CC(=O)NCc2cccc(C(F)(F)F)c2)C(=O)N2CCc3c([nH]c4ccccc34)[C@]12C` (stereo partly specified), the activity change, negative = inhibition was inactive: -4.76%.
Next, `CCn1c(O)c(N=NC2=NC(=O)CS2)c2ccccc21`: inactive: 2.94%; `Cc1cc(NC(=O)Nc2c[nH]c(=O)[nH]c2=O)ccc1Br`: inactive: 8.1%.
Next, `O=C(NCc1nnc(SCC(=O)N2CCCC2)o1)c1ccccc1F`: inactive: -1.83%; `CCn1nc(C(=O)NNC(=O)COc2ccc(OC)cc2)c2ccccc2c1=O`: inactive: -3.84%; `Cc1ccc(S(=O)(=O)N2CCOCC2)cc1NC(=O)COC(=O)c1cc(=O)[nH]c2ccccc12`: inactive: 6.67%.
For the compound `CCCCN1CC[C@H]2C=CC[C@@H](C(=O)Nc3ccc(OC)cc3)[C@H]2C1=O`, the activity change, negative = inhibition was inactive: 4.58%.
Next, `C#CCOCCOCCOCCNc1nc(N2CCN(C(=O)CCCCCCCCCCNC(=O)[C@H]([C@@H](C)CC)n3cc(CCCCN=C(N)N)nn3)CC2)nc(N2CCN(C(=O)CCCCCCCCCCNC(=O)[C@H](CCCCN)n3cc(C)nn3)CC2)n1`: inactive: 4.37%.
As for `COc1ccc(NC(=O)N(C)C[C@H]2Oc3ccc(NC(=O)CCN4CCOCC4)cc3C(=O)N([C@H](C)CO)C[C@@H]2C)cc1`, the figure is inactive: -1.41%.
Consider `C#CCNC(=O)C1=C[C@@H](c2ccc(C(F)(F)F)cc2)C[C@@H](OCCCCO)O1`, for which the activity change, negative = inhibition is inactive: -3.47%.
Regarding `CCOC(=O)c1ccc2c(c1)nc(COc1ccc3ccccc3c1)n2CC`, the activity change, negative = inhibition was inactive: -3.54%.
Next, `C[C@@H](NC(=O)Cn1cnc2c(OCc3ccccc3)ncnc21)c1cccc2ccccc12`: inactive: -1.72%; `Cc1ccc(-c2nnc(SC(C)C(=O)NCC3CCCO3)nc2-c2ccc(C)cc2)cc1` (stereo unspecified): inactive: -9.73%.
As for `O=C(NNC(=O)c1cccnc1Cl)c1ccc(F)cc1`, the figure is inactive: -2.64%; as for `Cc1c(C(=O)N2CCC3(CC2)CC(=O)c2ccccc2O3)cccc1[N+](=O)[O-]`, inactive: -1.01%.
Next, `COCCCNC(=O)C1CCN(C(=O)Nc2ccc(Cl)cc2)CC1`: inactive: 3.89%.
In the case of `Cc1cc(SCC(=O)c2ccccc2)n2nc(C)nc2n1`, the activity change, negative = inhibition was inactive: 4.99%.
As for `O=C(NCCNc1ccc([N+](=O)[O-])cc1C(F)(F)F)c1ccccc1`, the figure is inactive: 5.17%.
`O=C(Nc1c(F)cc(F)cc1Br)c1ccco1`: the activity change, negative = inhibition was inactive: -12.7%.
Next, `Cc1c(NC(=O)C2Cc3ccccc3CN2C(=O)c2ccco2)c(=O)n(-c2ccccc2)n1C` (stereo unspecified): inactive: -1.71%; `CC(=O)c1cc2c(O)c(O)ccc2o1`: inactive: 6.75%; `COc1ccc(S(=O)(=O)Nc2cccc3c2O[C@H](CN(C)Cc2ccc(C(=O)O)cc2)[C@@H](C)CN([C@H](C)CO)C3=O)cc1`: inactive: -3.72%.
Next, `Cc1cccc(NCc2ccc(O)c3ncccc23)c1`: inactive: -3.9%; `COc1cc([N+](=O)[O-])ccc1NC(=O)CSc1nccn1C`: inactive: -5.89%; `CCCc1nn(C)c(C(=O)Nc2ccc(C)c(C)c2)c1Cl`: inactive: -3.92%.
Next, `COc1ccc(/C=N/NS(=O)(=O)c2ccc(NC(C)=O)cc2)cc1`: inactive: 3.47%; `O=C(O)Cc1ccc2oc(-c3cccnc3)nc2c1`: inactive: 1.66%.
Take `Cc1cccn2c(=O)c3cc(C(=O)NCCN4CCOCC4)c(=N)n(CCc4ccccc4)c3nc12`: the activity change, negative = inhibition was inactive: -0.474%.
Regarding `O=[N+]([O-])c1cc(-c2cnc3ccccc3n2)ccc1Oc1ccc(F)cc1`, the activity change, negative = inhibition is inactive: 2.93%.
Next, `Cc1cccc(C2=N/C(=C\c3cccnc3)C(=O)O2)c1`: inactive: -0.971%.
Consider `Cc1ccc(S(=O)(=O)NC(=O)NCc2ccc(Cl)cc2)cc1`, for which the activity change, negative = inhibition is inactive: -5.3%.
Next, `COc1ccc(C(=O)N2CCCC(c3nc(-c4ccc(OC)c(OC)c4)no3)C2)c(OC)c1` (stereo unspecified): inactive: -2.52%; `CN1CCC[C@H]1CCNC(=O)c1c(-c2ccsc2)sc2ccccc12`: inactive: 4.72%.
As to `Cc1cc2oc(=O)cc(CSc3nnc(-c4cccs4)o3)c2cc1C(C)C`, the activity change, negative = inhibition is inactive: -1.67%.
As for `C[C@H](CO)N1C[C@H](C)[C@@H](CN(C)C(=O)Nc2ccc(C(F)(F)F)cc2)Oc2c(cccc2N(C)C)C1=O`, the figure is inactive: 4.24%; as for `Cc1nnc(N=c2ssnc2Cl)o1`, inactive: 4%; as for `Cc1onc(-c2c(F)cccc2Cl)c1C(=O)NC1CC1`, inactive: 0.723%.
As for `Cc1csc(NC(=O)CSc2nnc(-c3ccncc3)n2C)n1`, the activity change, negative = inhibition is inactive: 0.336%.
As for `CCn1c(SCC(=O)NCC(=O)Nc2ccc(F)cc2)nnc1-c1ccncc1`, the figure is inactive: 0.15%; as for `COC(=O)COc1ccc(Oc2cc(C)nc(SC)n2)nn1`, inactive: -1.19%; as for `Cc1nc2nc(C)c(CCC(=O)NCc3ccc4c(c3)OCO4)c(C)n2n1`, inactive: -2.25%.
With `COc1ccc(NC(=O)CNC(=O)c2nn(-c3ccc(OC)c(Cl)c3)c(=O)c3ccccc23)c(OC)c1`, the activity change, negative = inhibition was inactive: 0.725%.
With `COC(=O)c1ccc(CSc2nc3sc(C(=O)O)c(C)c3c(=O)[nH]2)cc1`, the activity change, negative = inhibition was inactive: 1.96%.
On to `CC[C@]12c3[nH]c4ccccc4c3CCN1C(=O)C(CC(=O)NCCCOC)C[C@@H]2C(=O)N1CCN(C(=O)C2CC2)CC1` (stereo partly specified), for which the activity change, negative = inhibition was inactive: -3.68%.
Next, `O=C(CSc1nc2ccccc2c(=O)n1Cc1ccccc1)NCc1ccco1`: inactive: 1.53%; `CCS(=O)(=O)N1CCN(c2ccc([N+](=O)[O-])c(N3CCOCC3)c2)CC1`: inactive: 2.06%.
As for `CC(OC(=O)c1cccnc1SCc1cc(=O)n2ccccc2n1)c1ccccn1` (stereo unspecified), the figure is inactive: 5.16%; as for `CCOc1cc(/C=N/NC(=O)C(=O)N/N=C/c2ccc(O)c(OCC)c2)ccc1O`, inactive: 2.79%.
In the case of `CC(=O)C[C@H](O)CC(=O)[C@H]1OC(=O)[C@H](C)CCCCc2ccccc21`, the activity change, negative = inhibition is inactive: -0.83%.
Next, `O=C(NS(=O)(=O)c1ccc2c(c1)OCCO2)c1ccccc1`: inactive: -5.85%.
As for `O=c1cc(N/N=C/c2ccccc2)[nH]c(=O)[nH]1`, the figure is inactive: -2.55%.
Next, `Clc1ccccc1Cn1nnc2c(NCCN3CCOCC3)ncnc21`: inactive: -12%; `Cc1[nH]c2ccccc2c1-c1ccc(Cl)nn1`: inactive: -0.212%; `O=S(=O)(c1ccc2nc(Nc3ccccc3)ccc2c1)N1CCCCC1`: inactive: 14.2%.
